Measurements from patent US7160907B2, “Pleuromutilin derivatives” (SmithKline Beecham P.L.C., priority 2000, dated 2007).
Some of these results come from one statement about several compounds together. For at least one compound, name, drawing or mass did not settle the structure.

Columns and labels:
Format in all cases: cell-based
[1] = system: Haemophilus influenzae Q1; assay: conventional MIC assay, Haemophilus influenzae Q1; details: against Haemophilus influenzae Q1
Method: (§1) Compounds of the present invention were assessed for anti-bacterial activity in a conventional MIC assay against a range of pathogenic organisms.

[2] = system: Moraxella catarrhalis 1502; assay: conventional MIC assay, Moraxella catarrhalis 1502; details: against Moraxella catarrhalis 1502
Method: as §1

[3] = system: Staphylococcus aureus Oxford; assay: conventional MIC assay, Staphylococcus aureus Oxford; details: against Staphylococcus aureus Oxford
Method: as §1

[4] = system: Streptococcus pneumoniae 1629; assay: conventional MIC assay, Streptococcus pneumoniae 1629; details: against Streptococcus pneumoniae 1629
Method: as §1

Measured: MIC

C=C[C@]1(C)C[C@@H](OC(=O)NC(=O)OCCn2c(=O)cc(C)[nH]c2=O)[C@]2(C)[C@H](C)CC[C@]3(CCC(=O)[C@H]32)[C@@H](C)[C@@H]1O [Example 41]
≤ 4 µg/mL: all assays above

C=CC1(C)CC(OC(=O)NC(=O)OCC(O)CN2CCOCC2)C2(C)C(C)CCC3(CCC(=O)C32)C(C)C1O (mixture of isomers) [Example 64]
≤ 4 µg/mL: all assays above

C=CC1(C)CC(OC(=O)NC(=O)OC2COC3C(O)COC23)C2(C)C(C)CCC3(CCC(=O)C32)C(C)C1O (stereo not shown) [Example 72]
≤ 4 µg/mL: all assays above

C=CC1(C)CC(OC(=O)NC(=O)OCC2CNC(=O)O2)C2(C)C(C)CCC3(CCC(=O)C32)C(C)C1O (mixture of isomers) [Example 30]
≤ 4 µg/mL: all assays above

C=CC1(C)CC(OC(=O)NC(=O)OCC2CN(C(=O)C(N)=O)CCO2)C2(C)C(C)CCC3(CCC(=O)C32)C(C)C1O (mixture of isomers) [Example 114]
≤ 4 µg/mL: all assays above

C=C[C@]1(C)C[C@@H](OC(=O)NC(=O)OCC(=O)NOC)[C@]2(C)[C@H](C)CC[C@]3(CCC(=O)[C@H]32)[C@@H](C)[C@@H]1O [Example 95]
≤ 4 µg/mL: all assays above

C=C[C@]1(C)C[C@@H](OC(=O)NC(=O)OCC(=O)N(C)C)[C@]2(C)[C@H](C)CC[C@]3(CCC(=O)[C@H]32)[C@@H](C)[C@@H]1O [Example 92]
≤ 4 µg/mL: all assays above

C=C[C@]1(C)C[C@@H](OC(=O)NC(=O)OCCN2CCOCC2)[C@]2(C)[C@H](C)CC[C@]3(CCC(=O)[C@H]32)[C@@H](C)[C@@H]1O [Example 66]
≤ 4 µg/mL: all assays above

C=C[C@]1(C)C[C@@H](OC(=O)NC(=O)O[C@@H]2CCN(C(=O)c3c[nH]cn3)C2)[C@]2(C)[C@H](C)CC[C@]3(CCC(=O)[C@H]32)[C@@H](C)[C@@H]1O [Example 113]
≤ 4 µg/mL: all assays above

C=CC1(C)CC(OC(=O)NC(=O)OC2CCC(N)C2)C2(C)C(C)CCC3(CCC(=O)C32)C(C)C1O (stereo not shown) [Example 125]
≤ 4 µg/mL: all assays above

CCC1(C)CC(OC(=O)NC(=O)OC2CCC(N)C2)C2(C)C(C)CCC3(CCC(=O)C32)C(C)C1O (stereo not drawn) [Example 127, 19,20-Dihydromutilin 14-[N-(trans-3-aminocyclopentyloxycarbonyl)]carbamate]
≤ 4 µg/mL: all assays above

C=C[C@]1(C)C[C@@H](OC(=O)NC(=O)OCCN(C)C(N)=O)[C@]2(C)[C@H](C)CC[C@]3(CCC(=O)[C@H]32)[C@@H](C)[C@@H]1O [Example 80]
≤ 4 µg/mL: all assays above

C=C[C@]1(C)C[C@@H](OC(=O)NC(=O)O[C@H]2CN[C@H](COC(N)=O)C2)[C@]2(C)[C@H](C)CC[C@]3(CCC(=O)[C@H]32)[C@@H](C)[C@@H]1O [Example 55]
≤ 4 µg/mL: all assays above
